Reference: patent publication US20140163073A1, “Small Molecule Inhibitors of P-type ATPases” (priority 2012, published 2014)
Entries after “also recorded” stand apart in the source; their conditions may differ. At least one compound was matched to its structure with a doubt left.

Experiments:
human tyrosinase = target: T1, human tyrosinase (Homo sapiens, UniProt P14679); test: Human tyrosinase activity using extracts from human melanocytes; format: biochemical
T1 construct: human tyrosinase activity using extracts from human melanocytes; endogenous in cells; host or cells: human melanocytes (cell extract)
T1 sequence (P14679 19-529): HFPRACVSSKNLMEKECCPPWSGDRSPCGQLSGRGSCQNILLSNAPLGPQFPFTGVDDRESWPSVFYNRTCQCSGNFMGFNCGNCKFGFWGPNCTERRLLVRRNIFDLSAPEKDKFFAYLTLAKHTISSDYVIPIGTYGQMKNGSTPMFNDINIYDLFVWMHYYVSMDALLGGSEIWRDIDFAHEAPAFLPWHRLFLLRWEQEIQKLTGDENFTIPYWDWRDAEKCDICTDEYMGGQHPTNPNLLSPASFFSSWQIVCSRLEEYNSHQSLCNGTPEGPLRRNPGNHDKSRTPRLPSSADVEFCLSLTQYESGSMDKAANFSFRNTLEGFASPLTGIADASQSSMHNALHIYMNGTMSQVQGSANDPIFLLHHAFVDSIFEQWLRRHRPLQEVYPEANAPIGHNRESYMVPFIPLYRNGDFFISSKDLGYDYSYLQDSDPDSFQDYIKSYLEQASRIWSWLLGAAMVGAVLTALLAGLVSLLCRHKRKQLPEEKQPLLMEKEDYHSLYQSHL

tyrosinase [1] = test: In-gel tyrosinase activity of B16F10 lysates with or without additional Cu+2; format: cell-based, mouse; settings: for tyrosinase activity in extracted protein: B16F10 cells, 96 hours, compared with cells treated only with Cu+2
[2] = system: normal human epidermal melanocytes; test: Melanogenesis and melanin content in normal human epidermal melanocytes; format: cell-based
Description: PPIs had been known to function in the parietal cells to block the production of stomach acid by binding to at least one cysteine residue of the gastric proton pump, ATP4A, to thus effect long-lasting, semi-irreversible inactivation of the ATP4A. In order to bind to the ATPase, the PPI must be in its active form, and the PPI requires an acidic environment to undergo rearrangement to its active form.

tyrosinase [3] = test: Tyrosinase glycosylation, EndoH and PNGaseF cleavage followed by Western-blotting, B16F10 cells; format: cell-based, mouse
[4] = system: tyrosinase, MITF, TRP-2, Pme117 mRNA; test: mRNA levels of melanogenesis related proteins by RT-PCR in B16F10 mouse melanoma cells; format: cell-based
Description: The inventors next examined the effect of omeprazole on tyrosinase, the principal, rate-limiting enzyme in melanin synthesis.

tyrosinase [5] = test: Total tyrosinase protein level by Western blot; format: cell-based; settings: Western blots, antibodies specific for mouse tyrosinase
tyrosinase [6] = test: Tyrosinase DOPA oxidase activity in vitro (L-DOPA, DOPA-chrome), mushroom; format: biochemical
melanocytes = test: Inhibition of melanogenesis / pigment development in cultured melanocytes; format: cell-based
tyrosinase [7] = target: T2, tyrosinase (Mus musculus, UniProt P11344); test: Tyrosinase DOPA oxidase activity in vitro (L-DOPA, DOPA-chrome), B16F10 cell extract; format: biochemical
T2 construct: endogenous in cells; host or cells: B16F10 mouse melanoma cells
T2 sequence (P11344 19-533): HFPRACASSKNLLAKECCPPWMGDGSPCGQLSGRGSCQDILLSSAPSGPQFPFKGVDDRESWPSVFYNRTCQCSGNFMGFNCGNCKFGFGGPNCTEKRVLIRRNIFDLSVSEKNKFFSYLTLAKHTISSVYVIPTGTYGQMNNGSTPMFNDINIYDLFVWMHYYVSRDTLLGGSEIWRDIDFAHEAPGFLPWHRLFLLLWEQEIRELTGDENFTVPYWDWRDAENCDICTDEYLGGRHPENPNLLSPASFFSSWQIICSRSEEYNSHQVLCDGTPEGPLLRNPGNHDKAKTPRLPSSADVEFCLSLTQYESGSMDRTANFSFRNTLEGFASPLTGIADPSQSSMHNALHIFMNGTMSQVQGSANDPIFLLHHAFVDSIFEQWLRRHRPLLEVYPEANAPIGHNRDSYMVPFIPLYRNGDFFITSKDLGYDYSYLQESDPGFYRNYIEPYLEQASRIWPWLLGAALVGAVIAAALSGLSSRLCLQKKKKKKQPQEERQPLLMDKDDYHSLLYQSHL

[8] = system: ATP7A-dependent tyrosinase activity; test: In situ tyrosinase activity in Me32a Menkes disease fibroblasts transfected with tyrosinase and ATP7A; format: cell-based, human; settings: pretreated with 200 μM
[9] = Preliminary clinical test of skin pigment levels; format: in vivo; settings: 0.0035% omeprazole, after 3 weeks
ATP7B = target: T3, ATP7B (Homo sapiens, UniProt P35670); test: Cu+2-dependent trafficking of myc-tagged ATP7B in HepG2 cells; format: cell-based
T3 construct: expressed in transfected cells
T3 sequence (P35670 1-1465): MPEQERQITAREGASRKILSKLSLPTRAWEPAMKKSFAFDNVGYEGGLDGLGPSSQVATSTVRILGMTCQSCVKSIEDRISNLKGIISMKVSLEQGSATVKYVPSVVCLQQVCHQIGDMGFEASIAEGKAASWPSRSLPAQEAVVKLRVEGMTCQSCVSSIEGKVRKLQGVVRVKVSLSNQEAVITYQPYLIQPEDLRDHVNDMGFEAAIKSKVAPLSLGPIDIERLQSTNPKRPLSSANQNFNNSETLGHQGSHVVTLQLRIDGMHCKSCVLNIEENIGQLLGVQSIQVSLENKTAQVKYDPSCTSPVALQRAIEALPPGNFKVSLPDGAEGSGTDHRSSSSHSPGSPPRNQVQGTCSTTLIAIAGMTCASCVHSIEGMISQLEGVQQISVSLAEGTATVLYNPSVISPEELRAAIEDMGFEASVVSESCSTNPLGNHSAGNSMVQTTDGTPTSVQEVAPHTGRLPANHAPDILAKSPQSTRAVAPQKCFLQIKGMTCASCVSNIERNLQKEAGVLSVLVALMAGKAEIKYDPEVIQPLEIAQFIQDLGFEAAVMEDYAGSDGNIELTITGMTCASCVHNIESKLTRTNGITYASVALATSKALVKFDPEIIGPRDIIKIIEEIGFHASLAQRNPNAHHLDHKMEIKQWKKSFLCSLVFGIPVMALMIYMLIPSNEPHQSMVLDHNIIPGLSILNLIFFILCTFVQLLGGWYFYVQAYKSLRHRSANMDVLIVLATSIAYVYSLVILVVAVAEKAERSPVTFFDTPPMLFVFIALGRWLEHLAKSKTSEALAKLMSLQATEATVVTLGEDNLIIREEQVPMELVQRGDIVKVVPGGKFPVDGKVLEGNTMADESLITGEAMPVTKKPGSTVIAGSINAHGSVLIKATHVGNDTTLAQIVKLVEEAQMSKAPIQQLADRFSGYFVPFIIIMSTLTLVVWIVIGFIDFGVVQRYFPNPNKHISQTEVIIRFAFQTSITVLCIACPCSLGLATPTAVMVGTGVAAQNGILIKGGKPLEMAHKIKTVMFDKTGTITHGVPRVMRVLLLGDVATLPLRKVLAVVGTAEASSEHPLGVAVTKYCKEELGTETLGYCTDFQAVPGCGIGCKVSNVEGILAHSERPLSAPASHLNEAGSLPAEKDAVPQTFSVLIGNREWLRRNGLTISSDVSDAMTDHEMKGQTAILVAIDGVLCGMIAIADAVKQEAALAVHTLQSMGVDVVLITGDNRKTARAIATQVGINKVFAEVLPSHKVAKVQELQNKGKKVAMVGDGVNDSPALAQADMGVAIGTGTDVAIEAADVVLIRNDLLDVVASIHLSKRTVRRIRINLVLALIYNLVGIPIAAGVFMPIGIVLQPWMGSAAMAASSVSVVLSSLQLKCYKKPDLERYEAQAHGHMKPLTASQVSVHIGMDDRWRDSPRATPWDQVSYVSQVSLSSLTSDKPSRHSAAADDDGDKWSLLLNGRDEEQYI

tyrosinase [10] = test: In situ tyrosine hydroxylase activity of tyrosinase in treated B16F10 cells; format: cell-based, mouse; settings: omeprazole-treated B16F10 cells

## COc1ccc2[nH]c([S+]([O-])Cc3ncc(C)c(OC)c3C)nc2c1 (stereo not drawn) [omeprazole, 5- or 6-methoxy-2-{[(4-methoxy-3,5-dimethylpyridin-2-yl)methyl]sulfinyl}-1H-benzimidazole]
Human tyrosinase
  concentration required to moderately inhibit human tyrosinase activity: 250 µg/mL
  direct effect on human tyrosinase activity: no significant direct effect
Tyrosinase [1]; 50 μM
  tyrosinase activity in extracted protein: lower
Tyrosinase [1]; 100 μM
  tyrosinase activity in extracted protein: lower
Tyrosinase [1]; omeprazole-pretreated B16F10 cells with additional Cu+2
  tyrosinase activity/melanin production on supplementation of copper: rescued
[2]
  cellular melanin content: reduced cellular melanin content
Tyrosinase [3]
  ratio of mature to immature glycosylated tyrosinase: decrease
[4]
  mRNA levels of MITF, TRP-2 and Pme117: did not alter
Tyrosinase [5]
  total tyrosinase protein level: significantly decreased
Tyrosinase [6]
  tyrosinase DOPA oxidase activity: only slightly decreased
melanocytes
  inhibition of melanogenesis: strongly inhibited melanogenesis
Tyrosinase [7]
  tyrosinase DOPA oxidase activity: only slightly decreased
[8]
  melanin content (in situ tyrosinase activity): Diminished melanin content
[9]
  skin pigment levels: significantly reduce skin pigment levels
ATP7B; HepG2, 100 μM
  ATP7B location (basal trafficking): marked contraction of ATP7B to a tight perinuclear location
ATP7B; HepG2, 100 μM for 16 hours, then 100 μM Cu+2 for 3 hours
  Cu+2-dependent trafficking of ATP7B: inhibition of trafficking; also recorded: blocks
ATP7B; HepG2, 100 μM, absence of Cu+2
  ATP7B localization without Cu+2-stimulation: does not modify ATP7B from baseline
Tyrosinase [10]
  in situ tyrosine hydroxylase activity of tyrosinase: decreased significantly
